# Assay results published in the supplement of paper PMC8728848.
# This is one part of the list.
# Tests used:
# Test in all cases: glycan array binding signal (z-score within array); higher = stronger binding
# Conditions in all cases: glycan notation: IUPAC condensed, linker removed
# Neu5Ac(a2-8)Neu5Ac = molecular target: Neu5Ac(a2-8)Neu5Ac
# How it was run: (§1)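 Arrays were curated from the Consortium for Functional Glycomics database, 3228 in total, and kept only where the protein sequence was available. Binding is expressed as a within-array Z-score. This score was averaged across arrays of the same protein sequence at different concentrations or buffers and across linkers, and negative values can be read as non-binding.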
# [1] = molecular target: Neu5Ac(a2-8)Neu5Ac(a2-3)Gal(b1-3)GalNAc(b1-4)[Neu5Ac(a2-3)]Gal(b1-4)Glc
# How it was run: as §1
# [2] = molecular target: Neu5Ac(a2-8)Neu5Ac(a2-3)Gal(b1-3)GalNAc(b1-4)[Neu5Ac(a2-8)Neu5Ac(a2-3)]Gal(b1-4)Glc
# How it was run: as §1
# [3] = molecular target: Neu5Ac(a2-8)Neu5Ac(a2-3)Gal(b1-4)Glc
# How it was run: as §1
# [4] = molecular target: Neu5Ac(a2-8)Neu5Ac(a2-3)Gal(b1-4)GlcNAc
# How it was run: as §1
# [5] = molecular target: Neu5Ac(a2-8)Neu5Ac(a2-3)[Gal(b1-3)GalNAc(b1-4)]Gal(b1-4)Glc
# How it was run: as §1
# [6] = molecular target: Neu5Ac(a2-8)Neu5Ac(a2-3)[GalNAc(b1-4)]Gal(b1-4)Glc
# How it was run: as §1
# [7] = molecular target: Neu5Ac(a2-8)Neu5Ac(a2-8)Neu5Ac
# How it was run: as §1
# [8] = molecular target: Neu5Ac(a2-8)Neu5Ac(a2-8)Neu5Ac(a2-3)Gal(b1-4)Glc
# How it was run: as §1
# [9] = molecular target: Neu5Ac(a2-8)Neu5Ac(a2-8)Neu5Ac(a2-3)[Gal(b1-3)GalNAc(b1-4)]Gal(b1-4)Glc
# How it was run: as §1
# [10] = molecular target: Neu5Ac(a2-8)Neu5Ac(a2-8)Neu5Ac(a2-3)[GalNAc(b1-4)]Gal(b1-4)Glc
# How it was run: as §1
# [11] = molecular target: Neu5Ac(a2-8)Neu5Ac(a2-8)Neu5Ac(a2-8)Neu5Ac(a2-3)[GalNAc(b1-4)]Gal(b1-4)Glc
# How it was run: as §1
# [12] = molecular target: Neu5Ac(a2-8)Neu5Gc(a2-3)Gal(b1-4)GlcNAc
# How it was run: as §1
# [13] = molecular target: Neu5Ac(b2-6)Gal(b1-4)GlcNAc
# How it was run: as §1
# Neu5Ac(b2-6)GalNAc = molecular target: Neu5Ac(b2-6)GalNAc
# How it was run: as §1
# [14] = molecular target: Neu5Ac9Ac(a2-3)Gal(b1-3)GlcNAc
# How it was run: as §1
# [15] = molecular target: Neu5Ac9Ac(a2-3)Gal(b1-4)GlcNAc
# How it was run: as §1
# [16] = molecular target: Neu5Ac9Ac(a2-6)Gal(b1-4)GlcNAc
# How it was run: as §1
# [17] = molecular target: Neu5Gc(a2-3)Gal(b1-3)GlcNAc
# How it was run: as §1
# [18] = molecular target: Neu5Gc(a2-3)Gal(b1-3)[Fuc(a1-4)]GlcNAc
# How it was run: as §1
# Neu5Gc(a2-3)Gal(b1-4)Glc = molecular target: Neu5Gc(a2-3)Gal(b1-4)Glc
# How it was run: as §1
# [19] = molecular target: Neu5Gc(a2-3)Gal(b1-4)GlcNAc
# How it was run: as §1
# [20] = molecular target: Neu5Gc(a2-3)Gal(b1-4)GlcNAc(b1-3)Gal(b1-4)GlcNAc(b1-2)Man(a1-3)[Neu5Gc(a2-3)Gal(b1-4)GlcNAc(b1-3)Gal(b1-4)GlcNAc(b1-2)Man(a1-6)]Man(b1-4)GlcNAc(b1-4)GlcNAc
# How it was run: as §1
# [21] = molecular target: Neu5Gc(a2-3)Gal(b1-4)[Fuc(a1-3)]GlcNAc
# How it was run: as §1
# [22] = molecular target: Neu5Gc(a2-6)Gal(b1-4)GlcNAc
# How it was run: as §1
# Neu5Gc(a2-6)GalNAc = molecular target: Neu5Gc(a2-6)GalNAc
# How it was run: as §1
# [23] = molecular target: Neu5Gc(a2-8)Neu5Ac(a2-3)Gal(b1-4)GlcNAc
# How it was run: as §1
# [24] = molecular target: Neu5Gc(a2-8)Neu5Gc(a2-3)Gal(b1-4)GlcNAc
# How it was run: as §1
# [25] = molecular target: Neu5Gc(a2-8)Neu5Gc(a2-3)Gal(b1-4)GlcNAc(b1-3)Gal(b1-4)GlcNAc
# How it was run: as §1
# [26] = molecular target: Neu5Gc(a2-8)Neu5Gc(a2-6)Gal(b1-4)GlcNAc
# How it was run: as §1
# [27] = molecular target: Neu5Gc(b2-6)Gal(b1-4)GlcNAc
# How it was run: as §1
binder,measurement,setting,value
PX14375D-bvu-513-34-513 (Bacteroides vulgatus) (protein) TEDTFWKDETDFNLALTSCYTPLKNALNGGYYGTRGVMLRIARADEVDFRNDISDVYTVNRFTNSNTNSLTQGMFYQFYNALYRTNSIMQKLEEKKEQFSTDFQNSVKGECLFIRGFYLFQLAKEFKDAPLRLTASQSPSTFPLAKSSQADIWAQAKEDLKTAASLLPITNKIGKPTQGAAYAALGKIYVYEENWQEAINVLEPLTQNPYTYKLVEDFNWNFDDTHENNAESIFELLIEDVGGTDLWGDGENINSTQSNTRPKEYAAAEVGGWYEANPTQQIMDIFWKEKDKDGNFDYRARCSVAWDYEGCTYYQRPFREVFAQDKWKTYWILKYQNWKTQKDEPAPPKSFINERAIRYADVLLMLAEAYMNKGALDTSIGYINQIRRRANLNDYSGPITKEGVFEDLVHQRAIEFFVEGERFYDLRRWGLLEQTLKTCDDTRYKNYQTGKSDNINKFNYFPIPAKELDTNPLCTPSEGW,glycan array binding signal (z-score),Neu5Ac(a2-8)Neu5Ac,-0.199
same,glycan array binding signal (z-score),[1],0.443
same,glycan array binding signal (z-score),[2],0.067
same,glycan array binding signal (z-score),[3],0.962
same,glycan array binding signal (z-score),[4],0.839
same,glycan array binding signal (z-score),[5],0.514
same,glycan array binding signal (z-score),[6],-0.025
same,glycan array binding signal (z-score),[7],-0.377
same,glycan array binding signal (z-score),[8],0.356
same,glycan array binding signal (z-score),[9],-0.008
same,glycan array binding signal (z-score),[10],0.725
same,glycan array binding signal (z-score),[11],-0.448
same,glycan array binding signal (z-score),[12],18.8
same,glycan array binding signal (z-score),[13],-0.245
same,glycan array binding signal (z-score),Neu5Ac(b2-6)GalNAc,-0.332
same,glycan array binding signal (z-score),[14],0.174
same,glycan array binding signal (z-score),[15],-0.566
same,glycan array binding signal (z-score),[16],-0.545
same,glycan array binding signal (z-score),[17],-0.181
same,glycan array binding signal (z-score),[18],-0.216
same,glycan array binding signal (z-score),Neu5Gc(a2-3)Gal(b1-4)Glc,-0.166
same,glycan array binding signal (z-score),[19],-0.43
same,glycan array binding signal (z-score),[20],-0.275
same,glycan array binding signal (z-score),[21],-0.091
same,glycan array binding signal (z-score),[22],0.891
same,glycan array binding signal (z-score),Neu5Gc(a2-6)GalNAc,-0.168
same,glycan array binding signal (z-score),[23],-1.13
same,glycan array binding signal (z-score),[24],-0.809
same,glycan array binding signal (z-score),[25],-0.969
same,glycan array binding signal (z-score),[26],-0.436
same,glycan array binding signal (z-score),[27],-0.088

# As a short view, part of the list above:
binder,measurement,setting,value
PX14375D-bvu-513-34-513 (Bacteroides vulgatus) (protein) TEDTFWKDETDFNLALTSCYTPLKNALNGGYYGTRGVMLRIARADEVDFRNDISDVYTVNRFTNSNTNSLTQGMFYQFYNALYRTNSIMQKLEEKKEQFSTDFQNSVKGECLFIRGFYLFQLAKEFKDAPLRLTASQSPSTFPLAKSSQADIWAQAKEDLKTAASLLPITNKIGKPTQGAAYAALGKIYVYEENWQEAINVLEPLTQNPYTYKLVEDFNWNFDDTHENNAESIFELLIEDVGGTDLWGDGENINSTQSNTRPKEYAAAEVGGWYEANPTQQIMDIFWKEKDKDGNFDYRARCSVAWDYEGCTYYQRPFREVFAQDKWKTYWILKYQNWKTQKDEPAPPKSFINERAIRYADVLLMLAEAYMNKGALDTSIGYINQIRRRANLNDYSGPITKEGVFEDLVHQRAIEFFVEGERFYDLRRWGLLEQTLKTCDDTRYKNYQTGKSDNINKFNYFPIPAKELDTNPLCTPSEGW,glycan array binding signal (z-score),[2],0.067
same,glycan array binding signal (z-score),[3],0.962
